{"source": "PubChem BioAssay AID504808 (Drosophila RNAi Screening Center, 2011)", "screen": "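Genes whose loss lifts activity of an E2F-responsive reporter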 (primary screen)", "cells": "Drosophila S2 cells", "reagents": "long dsRNA against Drosophila genes", "measurement": "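Firefly luciferase driven by E2F sites, normalised to Renilla luciferase on the same minimal promoter, measured by plate reader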", "direction": "E2F firefly: higher = more E2F reporter activity; Renilla normaliser: higher = more normaliser reporter signal", "call rule": "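a knock-down counted as active when the firefly/Renilla E2F signal rose above 50%, a threshold chosen arbitrarily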", "note": "The deposit covers about 21,000 reagents; shown is an unselected part of those with a known target gene and a result. In the full data, 18 (0.084%) were called active. 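Raw counts without plate normalisation, one of two replicates; the ratio scores behind the calls were not deposited.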 A number with no mark means an inactive call. The record does not give: the amount of reagent, the time to read-out."}
{"gene":"CG3534","amplicon":"DRSC15494","E2F firefly, rep 1":1.35e5,"Renilla normaliser, rep 1":6573}
{"gene":"Hmgcl","amplicon":"DRSC02051","E2F firefly, rep 1":1.35e5,"Renilla normaliser, rep 1":5068}
{"gene":"CG7379","amplicon":"DRSC16237","E2F firefly, rep 1":67297,"Renilla normaliser, rep 1":3020}
{"gene":"CG42535","amplicon":"DRSC09041","E2F firefly, rep 1":1.31e5,"Renilla normaliser, rep 1":4682}
{"gene":"CG9503","amplicon":"DRSC20186","E2F firefly, rep 1":2.24e5,"Renilla normaliser, rep 1":6814}
{"gene":"Acp26Ab","amplicon":"DRSC01856","E2F firefly, rep 1":1.45e5,"Renilla normaliser, rep 1":5371}
{"gene":"nAChRalpha3","amplicon":"DRSC18800","E2F firefly, rep 1":1.15e5,"Renilla normaliser, rep 1":5313}
{"gene":"dpa","amplicon":"DRSC07604","E2F firefly, rep 1":1.57e5,"Renilla normaliser, rep 1":4507}
{"gene":"CG6788","amplicon":"DRSC20007","E2F firefly, rep 1":1.58e5,"Renilla normaliser, rep 1":6908}
{"gene":"Dad1","amplicon":"DRSC02263","E2F firefly, rep 1":1.53e5,"Renilla normaliser, rep 1":5429}
{"gene":"Polr1E","amplicon":"DRSC14506","E2F firefly, rep 1":1.26e5,"Renilla normaliser, rep 1":7555}
{"gene":"Polr1E","amplicon":"DRSC15358","E2F firefly, rep 1":68197,"Renilla normaliser, rep 1":3077}

2 of these entries, set out differently:
{"gene": "Acp26Ab", "amplicon": "DRSC01856", "E2F firefly, rep 1": 1.45e5, "Renilla normaliser, rep 1": 5371}
{"gene": "nAChRalpha3", "amplicon": "DRSC18800", "E2F firefly, rep 1": 1.15e5, "Renilla normaliser, rep 1": 5313}
